Reference: doi:10.1101/2023.05.19.541433

Biological target: T1, GFP-S100A11 (S100 Ca2+-binding protein A11) (human) (UniProt P31949)
T1 sequence: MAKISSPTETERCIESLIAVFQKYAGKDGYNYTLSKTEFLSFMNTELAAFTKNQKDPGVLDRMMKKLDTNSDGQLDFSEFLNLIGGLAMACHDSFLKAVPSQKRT
Test: co-IP

E-cadherin (human (endogenous in MCF-10A))
binding: binds

No constants are given. Whether binding was seen depends on the method and setting. Binding seen in cells or lysates may run through a third protein. Binding calls can cover weak binding; strength is not graded here. Sequences can lack the tags named with a protein.
